{"sequences": {"note": "The chains behind the UniProt entries cited, without tags or fusion partners.", "UniProt Q9BZS1, whole entry": "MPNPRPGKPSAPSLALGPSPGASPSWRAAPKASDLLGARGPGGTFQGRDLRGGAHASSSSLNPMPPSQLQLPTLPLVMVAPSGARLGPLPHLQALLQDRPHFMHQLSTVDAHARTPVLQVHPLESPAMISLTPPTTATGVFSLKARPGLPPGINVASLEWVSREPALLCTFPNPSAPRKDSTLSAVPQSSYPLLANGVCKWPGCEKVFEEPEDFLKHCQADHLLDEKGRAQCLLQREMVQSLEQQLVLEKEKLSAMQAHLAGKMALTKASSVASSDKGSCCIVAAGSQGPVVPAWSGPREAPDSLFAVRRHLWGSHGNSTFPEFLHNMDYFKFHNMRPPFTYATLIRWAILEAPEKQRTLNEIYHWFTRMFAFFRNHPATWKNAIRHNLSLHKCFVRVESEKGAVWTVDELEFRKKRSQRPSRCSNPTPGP"}, "source": "patent US20120171701", "target": "FOXP3 (Homo sapiens) (UniProt Q9BZS1)", "assay": "EMSA", "conditions": "Treg nuclear extract; protein in an extract; label: fluorescent dye", "note": "Results from cells or extracts need not show a direct contact.", "data": [{"sequence": "GTATACAGTATGCAAACATAACTCACCATT (double strand) [SATB1 intron 2 FOXP3 binding site EMSA oligo]", "values": [{"measurement": "binding result", "value": "binds"}]}]}
